These are yes or no findings as the source states them, for the method shown. In cells and extracts the contact can be indirect. Some entries that bind do so weakly or less than the wild type.
Target: FLAG-tagged WT-CCDC105 (mouse) (UniProt Q9D4K7)
Assay: co-IP

Sequences of proteins named here, by UniProt entry; tags and fusion partners are left off. A change or cut given only in a name is not applied to a line headed by its entry. A line that says so, or that is headed by a name, gives the form on record, which may keep a tag or linker.
UniProt Q9D4K7: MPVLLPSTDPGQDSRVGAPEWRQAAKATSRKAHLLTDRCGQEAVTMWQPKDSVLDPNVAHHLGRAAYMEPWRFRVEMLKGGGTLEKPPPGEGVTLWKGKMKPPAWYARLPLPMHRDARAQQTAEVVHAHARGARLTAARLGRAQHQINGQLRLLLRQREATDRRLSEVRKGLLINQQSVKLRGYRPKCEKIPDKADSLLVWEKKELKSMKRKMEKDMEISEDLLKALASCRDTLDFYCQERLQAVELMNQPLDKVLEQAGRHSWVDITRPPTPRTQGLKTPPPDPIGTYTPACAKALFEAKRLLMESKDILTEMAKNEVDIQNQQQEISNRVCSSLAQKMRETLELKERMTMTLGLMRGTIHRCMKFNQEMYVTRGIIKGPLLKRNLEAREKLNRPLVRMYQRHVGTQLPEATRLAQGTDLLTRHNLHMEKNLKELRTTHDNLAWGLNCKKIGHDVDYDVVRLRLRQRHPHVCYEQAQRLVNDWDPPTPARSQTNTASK
MYC-tagged CFAP77 (A0A087WRI3-2, form named): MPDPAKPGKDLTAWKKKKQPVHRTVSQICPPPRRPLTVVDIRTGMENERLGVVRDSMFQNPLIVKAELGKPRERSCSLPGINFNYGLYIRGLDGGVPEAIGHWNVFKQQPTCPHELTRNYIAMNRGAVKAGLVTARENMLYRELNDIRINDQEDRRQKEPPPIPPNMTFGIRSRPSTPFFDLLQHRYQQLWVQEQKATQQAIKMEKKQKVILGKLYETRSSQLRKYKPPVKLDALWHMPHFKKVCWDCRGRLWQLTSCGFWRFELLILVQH

HA-tagged WT-CFAP77 (from UniProt A0A087WRI3-2 1-271)
binding: binds

MYC-tagged CFAP77 (from UniProt A0A087WRI3-2 1-271)
binding: binds
